{"source": "patent EP0444898A1", "about": "(MERCK & CO. INC., priority 1990, dated 1991)", "assay": "general procedure: Boc solid-phase peptide synthesis; chloromethylated resin (Merrifield resin); Boc-L-Pro-O-(PAM)-resin; BOP reagent/DIEA for some couplings; acid chloride coupling", "settings": "for isolated mass: scale 1 mmole", "key": {"[1]": {"settings": "late stage modification step, HPLC (Method G), head-to-tail ring"}, "[2]": {"settings": "whole synthesis, HPLC (Method G), scale of the general procedure 1 mmole"}, "[3]": {"settings": "whole synthesis, scale of the general procedure 1 mmole"}, "[4]": {"settings": "whole synthesis, 210 nM, scale of the general procedure 1 mmole"}, "[5]": {"settings": "whole synthesis, HPLC (Method G), scale of the general procedure 1 mmole, head-to-tail ring"}, "[6]": {"settings": "late stage modification step, HPLC (Method G)"}, "[7]": {"settings": "late stage modification step, head-to-tail ring"}}}
{"substance": "c-[D-Phenylalanyl-L-isoleucyl-D-pipecolyl-L-aspartyl-N-methyl-D-phenylalanyl-L-prolyl]", "values": [{"measurement": "final HPLC purity", "setting": "[1]", "value": 90.4, "unit": "% pure"}]}
{"substance": "C-[D-Tryptophanyl-L-isoleucinyl-D-pipecolyl-L-piperazin-2-yl (4-t-butylacetyl)-D-(N^α-Me)phenylalanyl-L-prolyl]", "values": [{"measurement": "final HPLC purity", "setting": "late stage modification step, 210 nM", "value": ">98", "unit": "%"}]}
{"substance": "cyclo[D-Phe-L-Ile-D-Pip-L-Pip-D-(Bzl)(NαMe)-Tyr-L-Pro]", "values": [{"measurement": "final HPLC purity", "setting": "[2]", "value": "purity 98.4%"}, {"measurement": "isolated mass", "setting": "whole synthesis", "value": 700, "unit": "mg"}, {"measurement": "isolated yield", "setting": "[3]", "value": 84, "unit": "%"}]}
{"substance": "cyclo[D-Phe-L-Ile-D-Pip-L-Pro-D-(NαMe)Phe-L-Pro]", "values": [{"measurement": "final HPLC purity", "setting": "[2]", "value": "purity 98%"}, {"measurement": "isolated mass", "setting": "whole synthesis", "value": 382, "unit": "mg"}, {"measurement": "isolated yield", "setting": "[3]", "value": 39, "unit": "%"}]}
{"substance": "Cyclo[D-Trp-L-Ile-D-Pip-L-(Cbz)Lys-D-His-L-Pro]", "values": [{"measurement": "final HPLC purity", "setting": "[2]", "value": 99, "unit": "%"}, {"measurement": "isolated mass", "setting": "whole synthesis", "value": 350, "unit": "mg"}, {"measurement": "isolated yield", "setting": "[3]", "value": 30, "unit": "%"}]}
{"substance": "c-[Phenytatanyl-L-isoieucinyf-D-piperazin-2-yl(4-Cbz)-D-piperazin-2-yl(4-Cbz)-D-(N^α-methyl)phenylaianyl-L-prolyl]", "values": [{"measurement": "final HPLC purity", "setting": "[4]", "value": ">99", "unit": "%"}]}
{"substance": "c-[D-Phenylaianyl-L-isoleucyl-D-pipecolyi-L-asparagyl-N-methyl-D-phenylaianyl-L-prolyl]", "values": [{"measurement": "final HPLC purity", "setting": "[1]", "value": 94.2, "unit": "% pure"}]}
{"substance": "Cyclo[D-Trp-L-Ile-D-Pip-L-Pip-D-(N^αMe-O-Bzl)-Tyr-L-Pro]", "values": [{"measurement": "final HPLC purity", "setting": "[2]", "value": 99, "unit": "%"}, {"measurement": "isolated mass", "setting": "whole synthesis", "value": 350, "unit": "mg"}, {"measurement": "isolated yield", "setting": "[3]", "value": 35, "unit": "%"}]}
{"substance": "c-[D-Phenylalanyl-L-isoleucyl-D-pipecolyl-L-pipecolyl-D-N-methyl-phenylalanyl-L-prolyl]", "values": [{"measurement": "final HPLC purity", "setting": "[5]", "value": 93.8, "unit": "% pure"}]}
{"substance": "c-[D-phenylalanyl-L-isoleucyl-D-pipecolyl-L-pipecolyl-N-methyl-D-phenylalanyl-L-pipecolyl]", "values": [{"measurement": "final HPLC purity", "setting": "[5]", "value": 98.3, "unit": "% pure"}]}
{"substance": "c-[D-Phenylalanyl-L-isoleucyl-D-prolyl-L-prolyl-D-threoninyl-L-prolyl]", "values": [{"measurement": "final HPLC purity", "setting": "whole synthesis, 210 nM, scale of the general procedure 1 mmole, head-to-tail ring", "value": 99.74, "unit": "%"}]}
{"substance": "c-[D,L-(5-F)Trp-L-Ile-D-Pip-L-Pip-D-His-L-Pro] lower Rf isomer", "values": [{"measurement": "final HPLC purity", "setting": "[2]", "value": 94, "unit": "%"}]}
{"substance": "c-[D-Phenylalanyl-L-cyclohexylglycyl-D-prolyl-L-prolyl-D-phenylalanyl-L-prolyl]", "values": [{"measurement": "final HPLC purity", "setting": "whole synthesis, 214 nM, scale of the general procedure 1 mmole", "value": 99, "unit": "%"}]}
{"substance": "c-[D-Tryptophanyl-L-isoleucyl-D-pipecolyl-L-lysyl-D-(N-methyl)phenylalanyl-L-prolyl]", "values": [{"measurement": "step yield", "setting": "late stage modification step", "value": 48, "unit": "%"}, {"measurement": "crude HPLC purity", "setting": "[6]", "value": 99, "unit": "%"}]}
{"substance": "c-[D-Phenylalanyl-L-isoleucinyl-D-piperazin-2-yl-(4-Cbz)-L-piperazin-2-yl(4-Cbz)-D-(N^α-methyl)phenylalanyl -L-prolyl]", "values": [{"measurement": "final HPLC purity", "setting": "[4]", "value": ">94", "unit": "%"}]}
{"substance": "Cydo[D-Trp-L-lIe-D-Pip-L-Orn-D-Trp-L-Pro]", "values": [{"measurement": "final HPLC purity", "setting": "[1]", "value": 99, "unit": "%"}, {"measurement": "step yield", "setting": "[7]", "value": 64, "unit": "%"}]}
{"substance": "c-[D,L-(5-F)Trp-L-Ile-D-Pip-L-Pip-D-His-L-Pro] higher Rf isomer", "values": [{"measurement": "final HPLC purity", "setting": "[2]", "value": 90, "unit": "%"}]}
{"substance": "c-[D-(O-Methyl)Tyrosyl-L-isoleucyl-D-pipecolyl-L-(N-t-butyloxycarbonyl)lysyl-D-(N-methyl)phenylalanyl-L-prolyl]", "values": [{"measurement": "step yield", "setting": "late stage modification step", "value": 85, "unit": "%"}, {"measurement": "crude HPLC purity", "setting": "[6]", "value": 95, "unit": "%"}]}
{"substance": "cyclo[D-Phe-L-Ile-D-Piz-L-Pip-D-His-L-Pro]", "values": [{"measurement": "final HPLC purity", "setting": "[2]", "value": "purity 99%"}, {"measurement": "isolated mass", "setting": "whole synthesis", "value": 38, "unit": "mg"}, {"measurement": "isolated yield", "setting": "[3]", "value": 4, "unit": "%"}]}
{"substance": "c-[D,L-(1-Me)Trp-L-Ile-D-Pip-L-Pip-D-His-L-Pro] higher Rf isomer", "values": [{"measurement": "final HPLC purity", "setting": "[2]", "value": 100, "unit": "%"}]}
{"substance": "c-[D-Phenylalanyl-L-threoninyl-D-prolyl-L-prolyl-D-phenylalanyl-L-prolyl]", "values": [{"measurement": "final HPLC purity", "setting": "late stage modification step, 214 nM, head-to-tail ring", "value": 97, "unit": "%"}]}
{"substance": "Cydo[D-Phe-L-lle-D-Pip-L-Pip-D-(p-amino)-Phe-L-Pro]", "values": [{"measurement": "final HPLC purity", "setting": "[1]", "value": 97.5, "unit": "%"}, {"measurement": "step yield", "setting": "[7]", "value": 92, "unit": "%"}]}
{"substance": "c-[D-Phenylalanyl-L-isoleucinyl-D-pipecolyl-D-piperazin-2-yl(4-Cbz)-D-phenylalanyl-L-prolyl]", "values": [{"measurement": "final HPLC purity", "setting": "whole synthesis, 214 nM, scale of the general procedure 1 mmole, head-to-tail ring", "value": 97, "unit": "%"}]}
{"substance": "cyclo[D-Trp-L-Ile-D-Pip-L-Pip-D-(NαMe)His-L-Pro]", "values": [{"measurement": "final HPLC purity", "setting": "[2]", "value": "purity 99.%"}, {"measurement": "isolated mass", "setting": "whole synthesis", "value": 110, "unit": "mg"}, {"measurement": "isolated yield", "setting": "[3]", "value": 12, "unit": "%"}]}
{"substance": "C-[D-2-Napthylalanyl-L-isoleucyl-D-pipecolyl-L-lysyl-D-(N-methyl)phenylalanyl-L-prolyl]", "values": [{"measurement": "crude HPLC purity", "setting": "[1]", "value": 99, "unit": "%"}, {"measurement": "step yield", "setting": "[7]", "value": 98, "unit": "%"}]}
{"substance": "c-[D-Phenylalanyl-L-cyclohexylalanyl-D-prolyl-L-prolyl-D-phenylalanyl-L-prolyl]", "values": [{"measurement": "final HPLC purity", "setting": "[4]", "value": 99, "unit": "%"}]}
{"substance": "c-[D-(O-Ethyl)-tyrosyl-D-isoleucyl-D-glutamyl-L-asparagyl-D-phenylalanyl-L-prolyl]", "values": [{"measurement": "final HPLC purity", "setting": "[5]", "value": 94.0, "unit": "% pure"}]}
{"substance": "Cyclo[D-Phe-L-Ile-D-Pip-L-Pip-D-(N^αMe)Phe-L-Pro]", "values": [{"measurement": "cyclisation yield", "setting": "cyclisation step", "value": 70, "unit": "%"}]}
